# Assay results taken from paper PMC12703733 (Journal of Medicinal Chemistry, 2025).
# Some peptides are written in HELM: one residue between dots, names in brackets for other building blocks, links after the first $. Bridge positions count the residues as written; N and C are the ends. Square brackets hold non-standard residues; d marks the D form. Pro(cis-4-guanidino) = NC(N)=N[C@@H]1CN[C@H](C(=O)O)C1; Phe(4-guanidino) = N=C(N)Nc1ccc(C[C@H](N)C(=O)O)cc1
# Assay: general procedure: Fmoc solid-phase peptide synthesis; Fmoc-Leu-Rink Amide Resin (0.64 mmol/g, 100–200 mesh); COMU, OxymaPure, DIEA
# Conditions: whole synthesis, 220 nm, scale of the general procedure 0.25 mmol
row,Substance,final HPLC purity
1,H-FV[Pro(cis-4-guanidino)]WFKKF[dL][dE]RIL-NH2 (lactam 6-10; SMILES CC[C@H](C)[C@H](NC(=O)[C@H](CCCNC(=N)N)NC(=O)[C@H]1CCC(=O)NCCCC[C@H](NC(=O)[C@H](Cc2ccccc2)NC(=O)[C@H](Cc2c[nH]c3ccccc23)NC(=O)[C@@H]2C[C@H](NC(=N)N)CN2C(=O)[C@@H](NC(=O)[C@@H](N)Cc2ccccc2)C(C)C)C(=O)N[C@@H](CCCCN)C(=O)N[C@@H](Cc2ccccc2)C(=O)N[C@H](CC(C)C)C(=O)N1)C(=O)N[C@@H](CC(C)C)C(N)=O),>95%
2,H-[Phe(4-guanidino)]VPWFKKF[dL][dE]RIL-NH2 (lactam 6-10; SMILES CC[C@H](C)[C@H](NC(=O)[C@H](CCCNC(=N)N)NC(=O)[C@H]1CCC(=O)NCCCC[C@H](NC(=O)[C@H](Cc2ccccc2)NC(=O)[C@H](Cc2c[nH]c3ccccc23)NC(=O)[C@@H]2CCCN2C(=O)[C@@H](NC(=O)[C@@H](N)Cc2ccc(NC(=N)N)cc2)C(C)C)C(=O)N[C@@H](CCCCN)C(=O)N[C@@H](Cc2ccccc2)C(=O)N[C@H](CC(C)C)C(=O)N1)C(=O)N[C@@H](CC(C)C)C(N)=O),>96%
3,"PEPTIDE1{F.V.P.W.F.K.K.F.[dL].[dK].R.I.L.[am]}|CHEM1{[CNH]}$PEPTIDE1,CHEM1,6:R3-1:R1|PEPTIDE1,CHEM1,10:R3-1:R2$$$V2.0",>98%
